Test results as given in the supplement of paper PMC8728848.
The list shows a part of the results.

Assays:
Experiment in all cases: glycan array binding signal (z-score within array); higher = stronger binding
Details in all cases: glycan notation: IUPAC condensed, linker removed
[1] = molecular target: Neu5Ac(a2-6)Gal(b1-3)GlcNAc(b1-3)[Gal(b1-4)GlcNAc(b1-6)]Gal(b1-4)Glc
In short: (§1)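 The binding signal is a Z-score computed within each array. Data were drawn from 3228 arrays in the Consortium for Functional Glycomics database, restricted to those with a known protein sequence. Scores were averaged over arrays of the same protein sequence at different concentrations or buffers, and over linkers, and negative values can be taken as non-binding.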

[2] = molecular target: Neu5Ac(a2-6)Gal(b1-4)Glc
In short: as §1

[3] = molecular target: Neu5Ac(a2-6)Gal(b1-4)GlcNAc
In short: as §1

[4] = molecular target: Neu5Ac(a2-6)Gal(b1-4)GlcNAc(b1-2)Man
In short: as §1

[5] = molecular target: Neu5Ac(a2-6)Gal(b1-4)GlcNAc(b1-2)Man(a1-3)Man(b1-4)GlcNAc(b1-4)GlcNAc
In short: as §1

[6] = molecular target: Neu5Ac(a2-6)Gal(b1-4)GlcNAc(b1-2)Man(a1-3)[Gal(b1-4)GlcNAc(b1-2)Man(a1-6)]Man(b1-4)GlcNAc(b1-4)GlcNAc
In short: as §1

[7] = molecular target: Neu5Ac(a2-6)Gal(b1-4)GlcNAc(b1-2)Man(a1-3)[GlcNAc(b1-2)Man(a1-6)]Man(b1-4)GlcNAc(b1-4)GlcNAc
In short: as §1

[8] = molecular target: Neu5Ac(a2-6)Gal(b1-4)GlcNAc(b1-2)Man(a1-3)[GlcNAc(b1-4)][Neu5Ac(a2-6)Gal(b1-4)GlcNAc(b1-2)Man(a1-6)]Man(b1-4)GlcNAc(b1-4)GlcNAc
In short: as §1

[9] = molecular target: Neu5Ac(a2-6)Gal(b1-4)GlcNAc(b1-2)Man(a1-3)[Man(a1-6)]Man(b1-4)GlcNAc(b1-4)GlcNAc
In short: as §1

[10] = molecular target: Neu5Ac(a2-6)Gal(b1-4)GlcNAc(b1-2)Man(a1-3)[Neu5Ac(a2-3)Gal(b1-4)GlcNAc(b1-2)Man(a1-6)]Man(b1-4)GlcNAc(b1-4)GlcNAc
In short: as §1

[11] = molecular target: Neu5Ac(a2-6)Gal(b1-4)GlcNAc(b1-2)Man(a1-3)[Neu5Ac(a2-6)Gal(b1-4)GlcNAc(b1-2)Man(a1-6)]Man(b1-4)GlcNAc(b1-4)GlcNAc
In short: as §1

[12] = molecular target: Neu5Ac(a2-6)Gal(b1-4)GlcNAc(b1-2)Man(a1-3)[Neu5Ac(a2-6)Gal(b1-4)GlcNAc(b1-2)Man(a1-6)]Man(b1-4)GlcNAc(b1-4)[Fuc(a1-6)]GlcNAc
In short: as §1

[13] = molecular target: Neu5Ac(a2-6)Gal(b1-4)GlcNAc(b1-2)Man(a1-6)Man(b1-4)GlcNAc(b1-4)GlcNAc
In short: as §1

[14] = molecular target: Neu5Ac(a2-6)Gal(b1-4)GlcNAc(b1-2)Man(a1-6)[Gal(b1-4)GlcNAc(b1-2)Man(a1-3)]Man(b1-4)GlcNAc(b1-4)GlcNAc
In short: as §1

[15] = molecular target: Neu5Ac(a2-6)Gal(b1-4)GlcNAc(b1-2)Man(a1-6)[GlcNAc(b1-2)Man(a1-3)]Man(b1-4)GlcNAc(b1-4)GlcNAc
In short: as §1

[16] = molecular target: Neu5Ac(a2-6)Gal(b1-4)GlcNAc(b1-2)Man(a1-6)[Man(a1-3)]Man(b1-4)GlcNAc(b1-4)GlcNAc
In short: as §1

[17] = molecular target: Neu5Ac(a2-6)Gal(b1-4)GlcNAc(b1-2)[Neu5Ac(a2-6)Gal(b1-4)GlcNAc(b1-4)]Man(a1-3)[GlcNAc(b1-4)][Neu5Ac(a2-6)Gal(b1-4)GlcNAc(b1-2)[Neu5Ac(a2-6)Gal(b1-4)GlcNAc(b1-6)]Man(a1-6)]Man(b1-4)GlcNAc(b1-4)GlcNAc
In short: as §1

[18] = molecular target: Neu5Ac(a2-6)Gal(b1-4)GlcNAc(b1-2)[Neu5Ac(a2-6)Gal(b1-4)GlcNAc(b1-4)]Man(a1-3)[GlcNAc(b1-4)][Neu5Ac(a2-6)Gal(b1-4)GlcNAc(b1-4)Man(a1-6)]Man(b1-4)GlcNAc(b1-4)GlcNAc
In short: as §1

[19] = molecular target: Neu5Ac(a2-6)Gal(b1-4)GlcNAc(b1-2)[Neu5Ac(a2-6)Gal(b1-4)GlcNAc(b1-6)]Man(a1-6)[Neu5Ac(a2-6)Gal(b1-4)GlcNAc(b1-2)Man(a1-3)][GlcNAc(b1-4)]Man(b1-4)GlcNAc(b1-4)GlcNAc
In short: as §1

[20] = molecular target: Neu5Ac(a2-6)Gal(b1-4)GlcNAc(b1-3)Gal(b1-3)GlcNAc
In short: as §1

[21] = molecular target: Neu5Ac(a2-6)Gal(b1-4)GlcNAc(b1-3)Gal(b1-4)GlcNAc
In short: as §1

[22] = molecular target: Neu5Ac(a2-6)Gal(b1-4)GlcNAc(b1-3)Gal(b1-4)GlcNAc(b1-2)Man(a1-3)[Neu5Ac(a2-6)Gal(b1-4)GlcNAc(b1-3)Gal(b1-4)GlcNAc(b1-2)Man(a1-6)]GalNAc
In short: as §1

[23] = molecular target: Neu5Ac(a2-6)Gal(b1-4)GlcNAc(b1-3)Gal(b1-4)GlcNAc(b1-3)Gal(b1-4)GlcNAc
In short: as §1

[24] = molecular target: Neu5Ac(a2-6)Gal(b1-4)GlcNAc(b1-3)Gal(b1-4)GlcNAc(b1-3)Gal(b1-4)GlcNAc(b1-2)Man(a1-3)[Neu5Ac(a2-6)Gal(b1-4)GlcNAc(b1-3)Gal(b1-4)GlcNAc(b1-3)Gal(b1-4)GlcNAc(b1-2)Man(a1-6)]GalNAc
In short: as §1

[25] = molecular target: Neu5Ac(a2-6)Gal(b1-4)GlcNAc(b1-3)Gal(b1-4)GlcNAc(b1-3)GalNAc
In short: as §1

[26] = molecular target: Neu5Ac(a2-6)Gal(b1-4)GlcNAc(b1-3)Gal(b1-4)GlcNAc(b1-3)[Neu5Ac(a2-6)Gal(b1-4)GlcNAc(b1-3)Gal(b1-4)GlcNAc(b1-6)]GalNAc
In short: as §1

[27] = molecular target: Neu5Ac(a2-6)Gal(b1-4)GlcNAc(b1-3)Gal(b1-4)GlcNAc(b1-6)[Gal(b1-3)]GalNAc
In short: as §1

[28] = molecular target: Neu5Ac(a2-6)Gal(b1-4)GlcNAc(b1-3)Gal(b1-4)[Fuc(a1-3)]GlcNAc(b1-3)Gal(b1-4)[Fuc(a1-3)]GlcNAc
In short: as §1

[29] = molecular target: Neu5Ac(a2-6)Gal(b1-4)GlcNAc(b1-3)GalNAc
In short: as §1

[30] = molecular target: Neu5Ac(a2-6)Gal(b1-4)GlcNAc(b1-3)[Neu5Ac(a2-6)Gal(b1-4)GlcNAc(b1-6)]GalNAc
In short: as §1

[31] = molecular target: Neu5Ac(a2-6)Gal(b1-4)GlcNAc(b1-6)GalNAc
In short: as §1

[32] = molecular target: Neu5Ac(a2-6)Gal(b1-4)GlcNAc(b1-6)[Gal(b1-3)GlcNAc(b1-3)]Gal(b1-4)Glc
In short: as §1

[33] = molecular target: Neu5Ac(a2-6)Gal(b1-4)GlcNAc(b1-6)[Gal(b1-3)]GalNAc
In short: as §1

[34] = molecular target: Neu5Ac(a2-6)Gal(b1-4)GlcNAc6S
In short: as §1

[35] = molecular target: Neu5Ac(a2-6)GalNAc
In short: as §1

[36] = molecular target: Neu5Ac(a2-6)GalNAc(b1-4)GlcNAc
In short: as §1

[37] = molecular target: Neu5Ac(a2-6)GalNAc(b1-4)GlcNAc6S
In short: as §1

[38] = molecular target: Neu5Ac(a2-6)GlcNAc(b1-4)GlcNAc
In short: as §1

B1: Nc3LysM-2 (protein)
chain: AHVLQARQSVSCDFATAANTGDTCASFAAAWGITEAAFAKLNPGVSCPGNLIAGSEYCVIGTVSTGAPTTTKAATTSTTPPTTTTTTKATTLSTSTTSVSPTGPSPQMPSITSTCNKFYQVQSGDGCWSIEQAQGVSASDFMAWNKAVDAQCDNLWLGYYVCVGVKGGSSPPPTTTTKPASSSAPTPQMPNTVSNCKKFHKVVSGDGCWAIEQAAGISASDFAKWNPYVDAACDNLWLGYYVCIGV
glycan array binding signal (z-score) [1]: -0.641
glycan array binding signal (z-score) [2]: 0.285
glycan array binding signal (z-score) [3]: 0.375
glycan array binding signal (z-score) [4]: 0.422
glycan array binding signal (z-score) [5]: -0.859
glycan array binding signal (z-score) [6]: -0.256
glycan array binding signal (z-score) [7]: -0.828
glycan array binding signal (z-score) [8]: -1.03
glycan array binding signal (z-score) [9]: -0.757
glycan array binding signal (z-score) [10]: 0.414
glycan array binding signal (z-score) [11]: -0.134
glycan array binding signal (z-score) [12]: 1.3
glycan array binding signal (z-score) [13]: -0.028
glycan array binding signal (z-score) [14]: -0.149
glycan array binding signal (z-score) [15]: -0.732
glycan array binding signal (z-score) [16]: -0.459
glycan array binding signal (z-score) [17]: -0.128
glycan array binding signal (z-score) [18]: -0.677
glycan array binding signal (z-score) [19]: 1.41
glycan array binding signal (z-score) [20]: -1.05
glycan array binding signal (z-score) [21]: -1.51
glycan array binding signal (z-score) [22]: -0.296
glycan array binding signal (z-score) [23]: 1.61
glycan array binding signal (z-score) [24]: 0.389
glycan array binding signal (z-score) [25]: -0.847
glycan array binding signal (z-score) [26]: -0.229
glycan array binding signal (z-score) [27]: -0.099
glycan array binding signal (z-score) [28]: 0.118
glycan array binding signal (z-score) [29]: -0.233
glycan array binding signal (z-score) [30]: -0.555
glycan array binding signal (z-score) [31]: -1.09
glycan array binding signal (z-score) [32]: 0.831
glycan array binding signal (z-score) [33]: 0.392
glycan array binding signal (z-score) [34]: -0.272
glycan array binding signal (z-score) [35]: -0.255
glycan array binding signal (z-score) [36]: -1.14
glycan array binding signal (z-score) [37]: -2.04
glycan array binding signal (z-score) [38]: -0.544
